Experimental data published in doi:10.1101/2022.04.29.490041.
Results are given in words; binding and its absence hold for the method and conditions named. Binding seen in cells or lysates may run through a third protein. Some results given as binding are weak or reduced against the parent protein; the word gives no strength. Sequences can lack the tags named with a protein.

How the values were obtained:
Assay in all cases: co-IP
[1] = target: T1, NSF_(E326Q):GFP (dominant-negative variant of NSF, GFP-tagged) (Arabidopsis thaliana) (UniProt Q9M0Y8)
T1 sequence: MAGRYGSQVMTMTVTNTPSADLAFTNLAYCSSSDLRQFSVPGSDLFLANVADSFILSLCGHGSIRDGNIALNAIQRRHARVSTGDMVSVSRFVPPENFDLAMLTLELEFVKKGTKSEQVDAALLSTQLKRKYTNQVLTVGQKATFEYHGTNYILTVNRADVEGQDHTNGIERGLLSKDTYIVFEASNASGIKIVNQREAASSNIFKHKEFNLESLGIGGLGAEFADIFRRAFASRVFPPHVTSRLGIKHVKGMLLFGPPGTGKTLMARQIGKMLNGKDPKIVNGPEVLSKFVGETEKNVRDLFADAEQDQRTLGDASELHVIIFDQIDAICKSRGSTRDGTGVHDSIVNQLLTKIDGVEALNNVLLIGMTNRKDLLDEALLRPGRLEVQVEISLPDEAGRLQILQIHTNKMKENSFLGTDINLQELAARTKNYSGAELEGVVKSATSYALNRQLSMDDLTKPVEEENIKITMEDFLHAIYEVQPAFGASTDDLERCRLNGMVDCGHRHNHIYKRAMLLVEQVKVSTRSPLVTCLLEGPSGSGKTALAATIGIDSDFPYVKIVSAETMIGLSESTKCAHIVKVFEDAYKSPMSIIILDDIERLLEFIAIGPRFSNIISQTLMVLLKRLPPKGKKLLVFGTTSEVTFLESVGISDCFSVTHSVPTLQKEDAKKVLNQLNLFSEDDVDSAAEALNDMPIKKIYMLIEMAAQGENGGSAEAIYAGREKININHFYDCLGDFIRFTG

[2] = target: T2, NSF:GFP (N-ethylmaleimide-sensitive factor, wild-type form, GFP-tagged) (Arabidopsis thaliana) (UniProt Q9M0Y8)
T2 sequence: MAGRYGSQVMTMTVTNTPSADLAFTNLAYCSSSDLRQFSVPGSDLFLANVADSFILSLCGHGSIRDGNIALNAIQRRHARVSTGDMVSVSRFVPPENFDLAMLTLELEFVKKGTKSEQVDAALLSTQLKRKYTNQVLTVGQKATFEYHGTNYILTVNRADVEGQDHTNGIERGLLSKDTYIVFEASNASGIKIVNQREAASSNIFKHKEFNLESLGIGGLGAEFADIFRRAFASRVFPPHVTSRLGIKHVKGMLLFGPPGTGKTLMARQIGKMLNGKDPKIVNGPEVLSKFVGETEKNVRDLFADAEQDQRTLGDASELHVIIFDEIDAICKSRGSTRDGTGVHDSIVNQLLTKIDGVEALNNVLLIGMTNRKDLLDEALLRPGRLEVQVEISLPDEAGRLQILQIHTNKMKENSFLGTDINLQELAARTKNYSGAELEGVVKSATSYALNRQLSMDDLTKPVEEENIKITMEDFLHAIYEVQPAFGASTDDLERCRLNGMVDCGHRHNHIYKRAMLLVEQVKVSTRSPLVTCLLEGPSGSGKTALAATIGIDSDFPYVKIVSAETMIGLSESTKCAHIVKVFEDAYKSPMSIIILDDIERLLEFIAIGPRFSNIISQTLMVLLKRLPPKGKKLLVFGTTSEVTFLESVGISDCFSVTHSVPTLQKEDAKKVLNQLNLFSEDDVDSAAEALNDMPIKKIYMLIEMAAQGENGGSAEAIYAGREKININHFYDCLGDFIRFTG

[3] = target: T3, mRFP:αSNAP2_(L288A) (dominant-negative variant of αSNAP2, RFP-tagged) (Arabidopsis thaliana) (UniProt Q9SPE6)
T3 sequence: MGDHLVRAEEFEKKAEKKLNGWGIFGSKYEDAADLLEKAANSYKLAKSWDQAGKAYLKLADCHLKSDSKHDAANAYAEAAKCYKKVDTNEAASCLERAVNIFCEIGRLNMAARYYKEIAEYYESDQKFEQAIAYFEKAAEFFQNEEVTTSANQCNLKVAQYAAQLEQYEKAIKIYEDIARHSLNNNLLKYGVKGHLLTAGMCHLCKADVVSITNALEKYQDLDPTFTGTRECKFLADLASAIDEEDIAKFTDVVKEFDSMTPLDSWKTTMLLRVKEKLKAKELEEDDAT

[4] = target: T4, mRFP:αSNAP2 (alpha-soluble NSF-associated protein 2, wild-type form, RFP-tagged) (Arabidopsis thaliana) (UniProt Q9SPE6)
T4 sequence: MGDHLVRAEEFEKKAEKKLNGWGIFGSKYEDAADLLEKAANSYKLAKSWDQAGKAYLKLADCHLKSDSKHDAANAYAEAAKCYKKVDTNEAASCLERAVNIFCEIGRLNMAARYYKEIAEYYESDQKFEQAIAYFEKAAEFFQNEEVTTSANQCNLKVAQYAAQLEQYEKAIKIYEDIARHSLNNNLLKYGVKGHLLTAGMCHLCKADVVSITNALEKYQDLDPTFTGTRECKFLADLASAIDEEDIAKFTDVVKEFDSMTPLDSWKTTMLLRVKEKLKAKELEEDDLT

Measured: binding

B1: SYP21 (Q-SNARE, MVB, vacuole) (protein, UniProt Q39233 1-279)
chain: MSFQDLEAGTRSPAPNRFTGGRQQRPSSRGDPSQEVAAGIFRISTAVNSFFRLVNSIGTPKDTLELRDKLQKTRLQISELVKNTSAKLKEASEADLHGSASQIKKIADAKLAKDFQSVLKEFQKAQRLAAEREITYTPVVTKEIPTSYNAPELDTESLRISQQQALLLQSRRQEVVFLDNEITFNEAIIEEREQGIREIEDQIRDVNGMFKDLALMVNHQGNIVDDISSNLDNSHAATTQATVQLRKAAKTQRSNSSLTCLLILIFGIVLLIVIIVVLV
binds: all assays above

B2: SYP31 (Q-SNARE, Golgi) (protein, UniProt Q9FFK1 1-336)
chain: MGSTFRDRTVELHSLSQTLKKIGAIPSVHQDEDDPASSKRSSPGSEFNKKASRIGLGIKETSQKITRLAKLAKQSTIFNDRTVEIQELTVLIRNDITGLNMALSDLQTLQNMELADGNYSQDQVGHYTAVCDDLKTRLMGATKQLQDVLTTRSENMKAHENRKQLFSTKNAVDSPPQNNAKSVPEPPPWSSSSNPFGNLQQPLLPPLNTGAPPGSQLRRRSAIENAPSQQMEMSLLQQTVPKQENYSQSRAVALHSVESRITELSGIFPQLATMVTQQGELAIRIDDNMDESLVNVEGARSALLQHLTRISSNRWLMMKIFAVIILFLIVFLFFVA
binds: all assays above

B3: SYP71 (Qc-SNARE) (protein, UniProt Q9SF29 1-266)
chain: MTVIDILTRVDSICKKYDKYDVDKQREANISGDDAFARLYGAFETQIETALEKAELVTKEKNRAAAVAMNAEIRRTKARLSEEVPKLQRLAVKRVKGLTTEELAARNDLVLALPARIEAIPDGTAGGPKSTSAWTPSSTTSRPDIKFDSDGRFDDDYFQESNESSQFRQEYEMRKIKQEQGLDMISEGLDALKNMASDMNEELDRQVPLMDEIDTKVDRATSDLKNTNVRLKDTVNQLRSSRNFCIDIVLLCIVLGIAAYLYNVLK
binds: all assays above

B4: SYP61 (Q-SNARE, TGN) (protein, UniProt Q946Y7 1-245)
chain: MSSAQDPFYIVKEEIQDSIDKLQSTFHKWERISPDMGDQAHVAKELVATCGSIEWQVDELEKAITVAAKDPSWYGIDEAELEKRRRWTSNARTQVRNVKSGVLAGKVSSGAGHASEVRRELMRMPNSGEASRYDQYGGRDDDGFVQSESDRQMLLIKQQDEELDELSKSVQRIGGVGLTIHDELVAQERIIDELDTEMDSTKNRLEFVQKKVGMVMKKAGAKGQMMMICFLLVLFIILFVLVFLT
binds: all assays above

B5: NPSN11 (Qb-SNARE) (protein, UniProt Q944A9 1-265)
chain: MDPISAVSEELAEIEGQINDIFRALSNGFQKLEKIKDANRQSRQLEELTDKMRDCKSLIKDFDREIKSLESGNDASTNRMLNDRRQSMVKELNSYVALKKKYSSNLASNNKRVDLFDGPGEEHMEENVLLASNMSNQELMDKGNSMMDDTDQAIERGKKIVQETINVGTDTSAALKAQTEQMSRVVNELDSIHFSLKKASKLVKEIGRQVATDKCIMAFLFLIVIGVIAIIIVKIVNPNNKDIRDIPGVGLAPPAMNRRLLWNHY
binds: all assays above

B6: SYP132 (Qa-SNARE, mainly plasma membrane) (protein, UniProt Q8VZU2 1-304)
chain: MNDLLKGSFELPRGQSSREGDVELGEQQGGDQGLEDFFKKVQVIDKQYDKLDKLLKKLQASHEESKSVTKAPAMKAIKKTMEKDVDEVGSIARFIKGKLEELDRENLANRQKPGCAKGSGVDRSRTATTLSLKKKLKDKMAEFQVLRENIQQEYRDVVDRRVYTVTGERADEDTIDELIETGNSEQIFQKAIQEQGRGQVMDTLAEIQERHDAVRDLEKKLLDLQQIFLDMAVLVDAQGEMLDNIESQVSSAVDHVQSGNTALQRAKSLQKNSRKWMCIAIIILLIVVAVIVVGVLKPWKNKSA
binds: all assays above

B7: SNAP33 (Qbc-SNARE) (protein, UniProt Q9S7P9 1-300)
chain: MFGLRKSPANLPKHNSVDLKSSKPNPFDSDDESDNKHTLNPSKRTTSEPSLADMTNPFGGERVQKGDSSSSKQSLFSNSKYQYKNNFRDSGGIENQSVQELEGYAVYKAEETTKSVQGCLKVAEDIRSDATRTLVMLHDQGEQITRTHHKAVEIDHDLSRGEKLLGSLGGMFSKTWKPKKTRPINGPVVTRDDSPTRRVNHLEKREKLGLNSAPRGQSRTREPLPESADAYQRVEMEKAKQDDGLSDLSDILGELKNMAVDMGSEIEKQNKGLDHLHDDVDELNFRVQQSNQRGRRLLGK
binds: all assays above
